The target in experiment [1] is T1, Venus‐tagged wild‐type HURP (HURPWT) (human) (UniProt Q15398).
T1 sequence: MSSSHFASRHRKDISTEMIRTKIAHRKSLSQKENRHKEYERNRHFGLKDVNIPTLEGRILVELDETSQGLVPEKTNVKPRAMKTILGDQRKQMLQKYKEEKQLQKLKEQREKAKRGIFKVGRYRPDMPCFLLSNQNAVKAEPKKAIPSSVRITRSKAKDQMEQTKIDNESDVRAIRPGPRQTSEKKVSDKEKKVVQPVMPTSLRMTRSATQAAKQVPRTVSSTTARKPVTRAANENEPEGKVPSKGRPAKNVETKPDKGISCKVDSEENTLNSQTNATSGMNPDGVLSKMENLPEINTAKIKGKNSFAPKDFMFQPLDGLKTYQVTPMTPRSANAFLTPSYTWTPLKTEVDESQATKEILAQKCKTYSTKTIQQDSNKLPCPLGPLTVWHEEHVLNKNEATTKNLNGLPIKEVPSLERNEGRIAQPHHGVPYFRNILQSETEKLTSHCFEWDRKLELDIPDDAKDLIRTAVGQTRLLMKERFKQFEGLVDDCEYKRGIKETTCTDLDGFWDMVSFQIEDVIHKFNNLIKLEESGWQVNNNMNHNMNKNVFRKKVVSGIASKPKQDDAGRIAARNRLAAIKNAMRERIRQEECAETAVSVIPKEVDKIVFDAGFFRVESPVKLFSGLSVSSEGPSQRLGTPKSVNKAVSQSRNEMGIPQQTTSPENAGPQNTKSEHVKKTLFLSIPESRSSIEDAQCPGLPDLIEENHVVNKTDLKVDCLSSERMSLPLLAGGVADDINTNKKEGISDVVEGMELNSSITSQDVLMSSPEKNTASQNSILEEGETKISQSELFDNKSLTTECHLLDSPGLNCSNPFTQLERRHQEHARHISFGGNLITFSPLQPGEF
Briefly: co-IP; as a5, but early S phase HeLa cells (collected after 24 h of 2.5 mM thymidine).

Amino acid sequences for entries named in this document (tags omitted).
UniProt Q00610: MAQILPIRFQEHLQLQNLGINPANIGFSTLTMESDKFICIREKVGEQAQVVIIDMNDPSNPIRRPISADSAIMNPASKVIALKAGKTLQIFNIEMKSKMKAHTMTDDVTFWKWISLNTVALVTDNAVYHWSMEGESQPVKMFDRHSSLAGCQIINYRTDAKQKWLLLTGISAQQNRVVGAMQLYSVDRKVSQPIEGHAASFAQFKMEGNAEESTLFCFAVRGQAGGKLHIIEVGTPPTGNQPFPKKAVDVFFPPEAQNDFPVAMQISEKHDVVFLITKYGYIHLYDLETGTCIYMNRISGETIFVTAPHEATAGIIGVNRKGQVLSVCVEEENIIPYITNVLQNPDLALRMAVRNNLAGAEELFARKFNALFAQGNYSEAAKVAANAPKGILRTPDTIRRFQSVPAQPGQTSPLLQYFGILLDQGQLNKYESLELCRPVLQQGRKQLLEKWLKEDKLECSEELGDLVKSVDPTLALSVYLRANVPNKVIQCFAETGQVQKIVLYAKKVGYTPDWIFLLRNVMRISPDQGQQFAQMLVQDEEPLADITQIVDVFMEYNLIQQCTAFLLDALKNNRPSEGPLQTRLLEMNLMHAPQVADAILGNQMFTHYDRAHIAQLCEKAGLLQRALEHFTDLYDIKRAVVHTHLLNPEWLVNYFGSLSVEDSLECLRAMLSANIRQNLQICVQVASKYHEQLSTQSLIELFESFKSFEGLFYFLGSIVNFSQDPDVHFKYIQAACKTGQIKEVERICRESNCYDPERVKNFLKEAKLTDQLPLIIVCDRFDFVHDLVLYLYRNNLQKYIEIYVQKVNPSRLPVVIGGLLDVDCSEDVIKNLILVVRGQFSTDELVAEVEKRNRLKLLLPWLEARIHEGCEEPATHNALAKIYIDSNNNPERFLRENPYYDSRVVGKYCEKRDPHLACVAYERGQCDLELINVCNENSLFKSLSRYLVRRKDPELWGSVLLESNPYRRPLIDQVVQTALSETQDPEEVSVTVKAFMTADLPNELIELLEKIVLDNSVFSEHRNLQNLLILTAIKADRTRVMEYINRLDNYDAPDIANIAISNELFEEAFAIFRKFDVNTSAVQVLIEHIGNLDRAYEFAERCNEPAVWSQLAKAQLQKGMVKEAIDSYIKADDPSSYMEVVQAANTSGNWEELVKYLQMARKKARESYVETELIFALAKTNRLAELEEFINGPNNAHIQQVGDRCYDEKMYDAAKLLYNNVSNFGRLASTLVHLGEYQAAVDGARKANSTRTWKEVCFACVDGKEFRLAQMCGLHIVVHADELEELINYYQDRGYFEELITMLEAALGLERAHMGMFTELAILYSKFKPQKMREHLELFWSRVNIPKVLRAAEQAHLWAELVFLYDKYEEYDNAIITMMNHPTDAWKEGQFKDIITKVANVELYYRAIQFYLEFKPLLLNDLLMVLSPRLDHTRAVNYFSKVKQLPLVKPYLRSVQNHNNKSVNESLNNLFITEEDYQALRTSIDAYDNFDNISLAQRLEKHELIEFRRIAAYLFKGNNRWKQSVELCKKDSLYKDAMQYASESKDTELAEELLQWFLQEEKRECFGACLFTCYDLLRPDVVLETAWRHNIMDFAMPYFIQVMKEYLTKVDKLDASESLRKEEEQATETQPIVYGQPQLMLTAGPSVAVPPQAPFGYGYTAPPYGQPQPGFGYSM

Experiment [2] deals with T1, Venus‐tagged wild‐type HURP (HURPWT) (human). Description: co-IP; GFP-trap of YFP/Venus-HURP from lysate of mitotic HeLa cells; the S839A HURP experiments: 50 mM NaCl in lysis and wash buffer; blot with anti-CHC 1:400.
Experiment [3] concerns the target T2, Venus‐tagged C‐terminally truncated HURP (HURP_(ΔMUT)) (human) (UniProt Q15398).
T2 sequence: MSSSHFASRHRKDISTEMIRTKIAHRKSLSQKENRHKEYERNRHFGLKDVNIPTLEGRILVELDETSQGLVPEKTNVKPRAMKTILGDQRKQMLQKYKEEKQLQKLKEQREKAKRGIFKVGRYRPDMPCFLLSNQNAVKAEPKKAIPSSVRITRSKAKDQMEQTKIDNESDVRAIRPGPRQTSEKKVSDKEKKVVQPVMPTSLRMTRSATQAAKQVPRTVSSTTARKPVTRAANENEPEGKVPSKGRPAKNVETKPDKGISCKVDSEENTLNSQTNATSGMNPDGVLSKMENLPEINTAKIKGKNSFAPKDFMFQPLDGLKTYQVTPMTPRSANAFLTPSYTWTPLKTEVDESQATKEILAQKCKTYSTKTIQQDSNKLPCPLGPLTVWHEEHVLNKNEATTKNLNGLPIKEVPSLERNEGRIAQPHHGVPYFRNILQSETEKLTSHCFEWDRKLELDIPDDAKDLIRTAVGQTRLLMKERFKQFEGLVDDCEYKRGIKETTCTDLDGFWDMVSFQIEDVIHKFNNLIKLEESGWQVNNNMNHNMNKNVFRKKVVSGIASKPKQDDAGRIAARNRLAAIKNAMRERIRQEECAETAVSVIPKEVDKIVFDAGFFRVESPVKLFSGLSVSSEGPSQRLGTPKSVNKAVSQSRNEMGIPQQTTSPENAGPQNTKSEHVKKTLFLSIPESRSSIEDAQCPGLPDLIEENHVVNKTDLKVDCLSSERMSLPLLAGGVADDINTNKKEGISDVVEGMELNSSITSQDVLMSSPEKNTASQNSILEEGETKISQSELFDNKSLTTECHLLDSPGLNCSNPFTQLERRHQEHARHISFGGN
The experiment is described as above.

The target in experiment [4] is T3, Venus‐tagged S839A HURP (HURP_(S839A)) (human) (UniProt Q15398).
T3 sequence: T1 sequence with S839A
Described as above.

Experiment [5] deals with T1, Venus‐tagged wild‐type HURP (HURPWT) (human). Description: co-IP; GFP-trap of YFP/Venus-HURP from lysate of mitotic HeLa cells (thymidine, then nocodazole, shake-off); lysis 100 mM NaCl, wash 150 mM NaCl, 0.05% NP-40; blot with anti-CHC.
The target of experiment [6] is T2, Venus‐tagged C‐terminally truncated HURP (HURP_(ΔMUT)) (human). The description is as above.

Numbering of substitutions follows the chain as printed. These are yes or no findings as the source states them, for the method shown. Binding seen in cells or lysates may run through a third protein. Some results given as binding are weak or reduced against the parent protein; the word gives no strength. Sequences can lack the tags named with a protein.

As to clathrin (from UniProt Q00610 1-1675), the binding result in experiment [1] is listed as “no binding (condition: early S phase cells)”; in experiment [2], “binds”; in experiment [3], “no binding”; in experiment [4], “no binding”; in experiment [5], “binds”; in experiment [6], “no binding”.

The record behind these values is PMC10333884, “Large‐scale phosphomimetic screening identifies phospho‐modulated motif‐based protein interactions” (Molecular Systems Biology, 2023).
